Values quoted from earlier work in US12466835B1, “Solid forms of macrocyclic compounds, salts and formulations thereof, and methods of preparing and using the same” (Kura Oncology, Inc., priority 2023, dated 2025).
For at least one compound, name, drawing or mass did not settle the structure.

System: recurrent/metastatic salivary gland tumors (SGT)
Details: of 13 pts with recurrent/metastatic salivary gland tumors (SGT); cited from earlier work

## Cn1cncc1[C@@](N)(c1ccc(Cl)cc1)c1ccc2c(c1)c(-c1cccc(Cl)c1)cc(=O)n2C [tipifarnib]
  additional patients with stable disease as best response: seven
  patients with objective response: one
